Test results: the supplement of paper PMC10849652
The other results are listed elsewhere or left out.

Protein sequences, listed by entry. Tags and fused reporters are not part of them. Lines headed by an entry give the natural chain unless they say otherwise; changes in a name come on top.
UniProt Q08431: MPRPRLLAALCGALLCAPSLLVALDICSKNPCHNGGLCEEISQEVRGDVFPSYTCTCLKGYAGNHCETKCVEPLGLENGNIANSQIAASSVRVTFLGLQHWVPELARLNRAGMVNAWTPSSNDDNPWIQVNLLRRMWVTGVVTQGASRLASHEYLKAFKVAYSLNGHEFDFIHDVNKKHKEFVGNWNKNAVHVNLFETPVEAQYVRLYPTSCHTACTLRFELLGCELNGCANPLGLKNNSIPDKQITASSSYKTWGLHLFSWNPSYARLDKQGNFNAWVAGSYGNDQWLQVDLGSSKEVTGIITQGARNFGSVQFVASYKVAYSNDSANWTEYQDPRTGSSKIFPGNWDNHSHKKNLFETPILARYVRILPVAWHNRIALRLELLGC
UniProt Q9NVC6: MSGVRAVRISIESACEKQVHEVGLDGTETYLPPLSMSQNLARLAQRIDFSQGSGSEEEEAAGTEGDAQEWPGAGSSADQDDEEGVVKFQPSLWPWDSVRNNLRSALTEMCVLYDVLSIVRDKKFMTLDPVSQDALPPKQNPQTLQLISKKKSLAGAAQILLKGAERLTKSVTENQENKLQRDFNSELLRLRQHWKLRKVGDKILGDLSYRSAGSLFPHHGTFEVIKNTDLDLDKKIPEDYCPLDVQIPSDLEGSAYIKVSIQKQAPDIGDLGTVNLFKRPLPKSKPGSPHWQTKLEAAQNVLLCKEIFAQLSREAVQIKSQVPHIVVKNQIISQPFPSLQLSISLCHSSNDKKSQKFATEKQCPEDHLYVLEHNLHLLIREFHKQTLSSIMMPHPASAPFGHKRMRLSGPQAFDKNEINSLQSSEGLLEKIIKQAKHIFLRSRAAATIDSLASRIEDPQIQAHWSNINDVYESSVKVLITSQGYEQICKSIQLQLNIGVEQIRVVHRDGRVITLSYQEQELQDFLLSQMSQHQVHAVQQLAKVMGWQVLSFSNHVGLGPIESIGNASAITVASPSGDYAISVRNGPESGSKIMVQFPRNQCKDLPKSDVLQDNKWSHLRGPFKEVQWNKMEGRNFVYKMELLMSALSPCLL
UniProt Q9ULC4: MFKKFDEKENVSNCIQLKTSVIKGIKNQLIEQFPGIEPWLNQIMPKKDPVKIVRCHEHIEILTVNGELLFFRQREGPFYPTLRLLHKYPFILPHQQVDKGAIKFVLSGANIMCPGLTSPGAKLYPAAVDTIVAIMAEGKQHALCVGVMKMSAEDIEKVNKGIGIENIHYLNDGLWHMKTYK
UniProt P56270: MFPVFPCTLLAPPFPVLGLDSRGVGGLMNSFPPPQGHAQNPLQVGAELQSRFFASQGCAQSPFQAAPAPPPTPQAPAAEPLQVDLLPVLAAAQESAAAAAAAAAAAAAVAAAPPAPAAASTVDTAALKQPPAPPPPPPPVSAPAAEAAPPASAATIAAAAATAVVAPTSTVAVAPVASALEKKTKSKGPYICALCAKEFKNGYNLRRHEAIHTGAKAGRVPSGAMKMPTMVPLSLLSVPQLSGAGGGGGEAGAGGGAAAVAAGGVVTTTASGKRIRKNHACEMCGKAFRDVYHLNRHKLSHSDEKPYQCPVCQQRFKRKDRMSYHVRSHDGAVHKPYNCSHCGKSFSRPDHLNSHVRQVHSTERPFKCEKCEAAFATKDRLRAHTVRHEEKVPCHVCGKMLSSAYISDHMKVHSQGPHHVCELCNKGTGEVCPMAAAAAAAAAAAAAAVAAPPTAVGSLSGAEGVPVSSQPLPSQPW
UniProt Q9BUE0: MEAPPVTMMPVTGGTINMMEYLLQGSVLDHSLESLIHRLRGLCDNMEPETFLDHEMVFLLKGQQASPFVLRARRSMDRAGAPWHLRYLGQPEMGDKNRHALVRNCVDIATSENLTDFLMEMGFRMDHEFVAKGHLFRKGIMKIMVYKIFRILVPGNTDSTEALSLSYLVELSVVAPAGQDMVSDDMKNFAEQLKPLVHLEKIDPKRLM
UniProt Q9NS73: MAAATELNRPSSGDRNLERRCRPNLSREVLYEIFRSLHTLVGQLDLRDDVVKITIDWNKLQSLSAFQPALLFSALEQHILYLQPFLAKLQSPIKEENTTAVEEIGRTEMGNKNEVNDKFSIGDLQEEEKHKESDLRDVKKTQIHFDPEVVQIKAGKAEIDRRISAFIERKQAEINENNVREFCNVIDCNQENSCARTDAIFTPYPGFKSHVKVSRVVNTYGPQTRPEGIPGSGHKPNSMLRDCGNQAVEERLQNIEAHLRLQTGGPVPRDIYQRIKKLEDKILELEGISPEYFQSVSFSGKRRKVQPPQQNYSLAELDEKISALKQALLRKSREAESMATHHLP
UniProt P48163: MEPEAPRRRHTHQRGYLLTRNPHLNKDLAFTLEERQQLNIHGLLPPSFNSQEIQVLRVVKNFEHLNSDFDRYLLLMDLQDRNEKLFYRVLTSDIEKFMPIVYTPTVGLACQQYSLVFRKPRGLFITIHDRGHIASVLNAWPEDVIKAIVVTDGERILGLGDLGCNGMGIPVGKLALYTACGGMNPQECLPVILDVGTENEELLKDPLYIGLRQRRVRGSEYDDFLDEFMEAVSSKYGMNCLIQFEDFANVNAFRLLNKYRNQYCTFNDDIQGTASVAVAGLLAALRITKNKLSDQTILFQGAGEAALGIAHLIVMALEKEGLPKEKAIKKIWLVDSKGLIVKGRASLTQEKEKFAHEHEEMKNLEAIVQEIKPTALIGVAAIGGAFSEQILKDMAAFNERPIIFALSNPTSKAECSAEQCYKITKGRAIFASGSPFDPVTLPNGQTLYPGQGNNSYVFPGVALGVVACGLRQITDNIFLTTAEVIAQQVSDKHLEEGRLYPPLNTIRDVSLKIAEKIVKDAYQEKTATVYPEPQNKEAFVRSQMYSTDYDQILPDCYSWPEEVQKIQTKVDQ
UniProt Q9Y2X0: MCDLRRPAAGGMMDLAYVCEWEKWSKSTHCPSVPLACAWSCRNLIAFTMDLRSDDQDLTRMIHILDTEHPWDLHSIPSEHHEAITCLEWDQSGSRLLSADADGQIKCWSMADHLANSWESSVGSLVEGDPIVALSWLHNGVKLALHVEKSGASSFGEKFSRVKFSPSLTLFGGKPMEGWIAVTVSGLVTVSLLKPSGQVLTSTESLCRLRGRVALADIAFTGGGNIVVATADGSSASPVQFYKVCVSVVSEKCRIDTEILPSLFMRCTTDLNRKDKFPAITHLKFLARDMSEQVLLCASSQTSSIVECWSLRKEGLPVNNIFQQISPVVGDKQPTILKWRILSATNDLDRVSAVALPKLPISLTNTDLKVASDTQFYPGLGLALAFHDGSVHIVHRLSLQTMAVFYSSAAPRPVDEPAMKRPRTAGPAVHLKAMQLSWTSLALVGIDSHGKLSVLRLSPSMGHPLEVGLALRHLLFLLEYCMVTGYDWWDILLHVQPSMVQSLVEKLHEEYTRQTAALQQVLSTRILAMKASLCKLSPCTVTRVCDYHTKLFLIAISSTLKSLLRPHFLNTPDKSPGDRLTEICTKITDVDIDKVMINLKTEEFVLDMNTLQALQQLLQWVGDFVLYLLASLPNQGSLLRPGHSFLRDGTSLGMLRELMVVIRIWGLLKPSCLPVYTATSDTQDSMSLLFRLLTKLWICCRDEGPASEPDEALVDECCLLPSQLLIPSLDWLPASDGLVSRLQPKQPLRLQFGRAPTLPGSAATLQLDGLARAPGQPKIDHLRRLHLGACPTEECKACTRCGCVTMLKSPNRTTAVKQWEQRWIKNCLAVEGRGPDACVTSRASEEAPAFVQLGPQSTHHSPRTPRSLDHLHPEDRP
UniProt Q8WXB1: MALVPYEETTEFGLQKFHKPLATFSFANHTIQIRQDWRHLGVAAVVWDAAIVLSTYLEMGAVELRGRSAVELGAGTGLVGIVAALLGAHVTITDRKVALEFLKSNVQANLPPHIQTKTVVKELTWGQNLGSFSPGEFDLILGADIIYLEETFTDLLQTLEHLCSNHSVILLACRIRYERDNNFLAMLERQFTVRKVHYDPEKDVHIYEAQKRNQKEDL
UniProt Q9Y3C7: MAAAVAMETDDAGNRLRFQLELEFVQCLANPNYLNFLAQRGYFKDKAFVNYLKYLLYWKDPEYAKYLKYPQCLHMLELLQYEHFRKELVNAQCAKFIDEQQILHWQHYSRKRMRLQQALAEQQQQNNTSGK
UniProt Q9GZU1, whole entry, looked up: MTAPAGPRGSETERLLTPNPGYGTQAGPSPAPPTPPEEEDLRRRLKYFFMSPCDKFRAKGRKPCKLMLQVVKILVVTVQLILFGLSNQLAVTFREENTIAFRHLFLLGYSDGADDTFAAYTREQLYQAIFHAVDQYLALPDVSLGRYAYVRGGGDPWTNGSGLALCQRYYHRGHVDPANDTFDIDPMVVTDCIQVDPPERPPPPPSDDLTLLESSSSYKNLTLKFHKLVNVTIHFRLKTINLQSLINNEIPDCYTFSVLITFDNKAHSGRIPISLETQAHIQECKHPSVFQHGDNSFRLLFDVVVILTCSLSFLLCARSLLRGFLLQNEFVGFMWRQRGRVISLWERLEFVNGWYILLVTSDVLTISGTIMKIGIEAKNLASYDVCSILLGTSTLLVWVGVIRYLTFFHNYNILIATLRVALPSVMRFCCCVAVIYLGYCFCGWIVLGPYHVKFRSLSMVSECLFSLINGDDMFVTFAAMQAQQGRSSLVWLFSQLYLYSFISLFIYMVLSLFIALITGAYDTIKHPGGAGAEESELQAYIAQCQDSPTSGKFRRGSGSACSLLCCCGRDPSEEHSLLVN
UniProt Q15648, whole entry, looked up: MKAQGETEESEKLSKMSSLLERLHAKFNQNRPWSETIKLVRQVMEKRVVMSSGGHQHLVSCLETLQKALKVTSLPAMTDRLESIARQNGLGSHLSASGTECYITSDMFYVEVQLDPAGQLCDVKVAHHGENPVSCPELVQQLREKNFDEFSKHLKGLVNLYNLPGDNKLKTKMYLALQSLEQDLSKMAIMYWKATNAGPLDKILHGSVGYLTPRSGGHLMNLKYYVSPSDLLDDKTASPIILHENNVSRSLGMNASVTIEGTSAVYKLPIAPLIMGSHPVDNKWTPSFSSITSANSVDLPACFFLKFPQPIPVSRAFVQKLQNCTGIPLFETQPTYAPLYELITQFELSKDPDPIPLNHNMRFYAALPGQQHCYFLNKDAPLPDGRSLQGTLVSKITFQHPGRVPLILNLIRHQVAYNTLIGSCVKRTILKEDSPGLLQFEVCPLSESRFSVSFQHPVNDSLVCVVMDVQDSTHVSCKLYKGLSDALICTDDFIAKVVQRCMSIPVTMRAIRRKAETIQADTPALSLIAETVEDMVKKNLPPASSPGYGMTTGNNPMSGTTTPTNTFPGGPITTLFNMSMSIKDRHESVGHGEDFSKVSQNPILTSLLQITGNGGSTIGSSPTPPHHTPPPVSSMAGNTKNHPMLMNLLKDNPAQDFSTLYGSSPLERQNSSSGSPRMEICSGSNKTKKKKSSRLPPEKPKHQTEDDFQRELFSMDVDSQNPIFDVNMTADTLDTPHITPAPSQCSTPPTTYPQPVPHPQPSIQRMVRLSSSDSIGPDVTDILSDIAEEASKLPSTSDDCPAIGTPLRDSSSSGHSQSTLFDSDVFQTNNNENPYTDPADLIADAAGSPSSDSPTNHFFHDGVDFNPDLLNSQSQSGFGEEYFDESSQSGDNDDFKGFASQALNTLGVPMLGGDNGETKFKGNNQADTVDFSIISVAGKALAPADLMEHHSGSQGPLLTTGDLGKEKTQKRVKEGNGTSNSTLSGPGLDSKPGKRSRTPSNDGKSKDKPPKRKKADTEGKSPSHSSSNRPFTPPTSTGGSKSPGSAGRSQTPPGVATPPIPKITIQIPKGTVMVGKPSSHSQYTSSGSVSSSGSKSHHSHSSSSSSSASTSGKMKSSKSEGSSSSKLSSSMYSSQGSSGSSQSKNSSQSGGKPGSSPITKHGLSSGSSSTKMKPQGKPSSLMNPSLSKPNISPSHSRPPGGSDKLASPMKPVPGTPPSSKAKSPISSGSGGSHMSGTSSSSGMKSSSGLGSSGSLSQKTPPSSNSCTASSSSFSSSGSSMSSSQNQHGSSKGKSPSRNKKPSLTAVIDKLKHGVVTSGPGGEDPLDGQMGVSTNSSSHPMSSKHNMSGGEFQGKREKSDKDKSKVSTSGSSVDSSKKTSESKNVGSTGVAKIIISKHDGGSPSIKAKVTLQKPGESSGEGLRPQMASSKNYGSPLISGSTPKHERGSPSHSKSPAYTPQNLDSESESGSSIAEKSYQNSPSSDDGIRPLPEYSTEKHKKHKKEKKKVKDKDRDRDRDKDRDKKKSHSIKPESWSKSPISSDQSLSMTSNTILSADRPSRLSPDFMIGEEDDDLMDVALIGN
UniProt Q9H1A3: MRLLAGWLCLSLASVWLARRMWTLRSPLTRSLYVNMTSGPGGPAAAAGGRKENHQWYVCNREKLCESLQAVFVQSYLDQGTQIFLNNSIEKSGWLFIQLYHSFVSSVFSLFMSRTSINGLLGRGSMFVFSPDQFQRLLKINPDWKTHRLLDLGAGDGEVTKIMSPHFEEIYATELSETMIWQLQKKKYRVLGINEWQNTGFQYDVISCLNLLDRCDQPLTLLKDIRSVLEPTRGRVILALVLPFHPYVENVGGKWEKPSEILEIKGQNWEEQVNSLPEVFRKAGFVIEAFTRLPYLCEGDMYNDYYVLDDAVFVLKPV

Assays:
Assay in all cases: log2 fold change, soluble protein after heating vs DMSO (PISA); higher = thermal stabilisation; K562 lysate, 10 uM; active = over 0.2 and 3.5 SD of the protein, either way, in both replicates (recomputed)
[1] = compound: CS(=O)(=O)CCNCc1ccc(-c2ccc3ncnc(Nc4ccc(OCc5cccc(F)c5)c(Cl)c4)c3c2)o1 [lapatinib]
Procedure, shortened: (§1)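 Values give the log-two fold change in thermal stability against solvent controls, from duplicates. Crude K562 extract at 1 mg/mL protein, made by dounce homogenisation in PBS pH 7.4 with 1 mM MgCl2, was treated with 10 μM compound for 30 min. After 3 min heating across 48°C-58°C, aliquots were pooled, adjusted to 0.5% NP-40 at 4°C and centrifuged at 21,000xg for 90 min. The supernatant was measured by TMTpro 16plex LC-MS/MS with channel sums equalised.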

[2] = compound: CS(=O)(=O)N1CCN(Cc2cc3nc(-c4cccc5[nH]ncc45)nc(N4CCOCC4)c3s2)CC1 [pictilisib]
Procedure, shortened: as §1

[3] = compound: C[C@@H](Oc1cc(-c2cnn(C3CCNCC3)c2)cnc1N)c1c(Cl)ccc(F)c1Cl [crizotinib]
Procedure, shortened: as §1

[4] = compound: C[C@H](C1=CC=C(C=C1)C(=O)NC2=C3C=CNC3=NC=C2)N
Procedure, shortened: as §1

[5] = compound: C[C@H](Nc1ncnc2nc[nH]c12)c1cc2cccc(Cl)c2c(=O)n1-c1ccccc1 [duvelisib]
Procedure, shortened: as §1

[6] = compound: Cc1cc(Nc2cc(CN3CCOCC3)c3nc(C)c(Cc4ccc(Cl)cc4F)n3n2)n[nH]1 [gandotinib]
Procedure, shortened: as §1

[7] = compound: Cc1cc(Nc2cc(N3CCN(C)CC3)nc(Sc3ccc(NC(=O)C4CC4)cc3)n2)n[nH]1 [tozasertib]
Procedure, shortened: as §1

[8] = compound: Cc1ccc(-n2nc(C(C)(C)C)cc2NC(=O)Nc2ccc(OCCN3CCOCC3)c3ccccc23)cc1 [doramapimod]
Procedure, shortened: as §1

[9] = compound: Cc1ccc(NC(=O)c2ccc(CN3CC[C@H](N(C)C)C3)c(C(F)(F)F)c2)cc1Nc1nccc(-c2cncnc2)n1 [bafetinib]
Procedure, shortened: as §1

[10] = compound: Cc1cccc(CC(=O)N2CCc3c2ccc(-c2cn(C)c4ncnc(N)c24)c3F)n1
Procedure, shortened: as §1

[11] = compound: Cc1cn(-c2cc(NC(=O)c3ccc(C)c(Nc4nccc(-c5cccnc5)n4)c3)cc(C(F)(F)F)c2)cn1 [nilotinib]
Procedure, shortened: as §1

[12] = compound: Cc1nc(Nc2n[nH]c3c2CN(C(=O)N[C@H](CN(C)C)c2ccccc2)C3(C)C)c2sccc2n1
Procedure, shortened: as §1

[13] = compound: Cc1nc(Nc2ncc(C(=O)Nc3c(C)cccc3Cl)s2)cc(N2CCN(CCO)CC2)n1 [dasatinib]
Procedure, shortened: as §1

[14] = compound: Cc1ncc(-c2ccnc(Nc3ccc(S(C)(=O)=O)cc3)n2)n1C(C)C
Procedure, shortened: as §1

[15] = compound: Cn1cc(-c2ccc3c(c2)CCN3C(=O)Cc2cccc(C(F)(F)F)c2)c2c(N)ncnc21
Procedure, shortened: as §1

[16] = compound: Cn1cc(CNCC2CCN(c3ncc(C(=O)NO)cn3)CC2)c2ccccc21 [quisinostat]
Procedure, shortened: as §1

[17] = compound: Cn1cncc1[C@@](N)(c1ccc(Cl)cc1)c1ccc2c(c1)c(-c1cccc(Cl)c1)cc(=O)n2C [tipifarnib]
Procedure, shortened: as §1

[18] = compound: NC(=O)Nc1cc(-c2cccc(F)c2)sc1C(=O)N[C@H]1CCCNC1
Procedure, shortened: as §1

[19] = compound: NC(=O)c1cnc(N[C@@H]2CCCC[C@@H]2N)nc1Nc1cccc(-n2nccn2)c1
Procedure, shortened: as §1

[20] = compound: NC1(c2ccc(-c3nc4ccn5c(=O)[nH]nc5c4cc3-c3ccccc3)cc2)CCC1
Procedure, shortened: as §1

Target | log2 fold change [1] | log2 fold change [2] | log2 fold change [3] | log2 fold change [4] | log2 fold change [5] | log2 fold change [6] | log2 fold change [7] | log2 fold change [8] | log2 fold change [9] | log2 fold change [10] | log2 fold change [11] | log2 fold change [12] | log2 fold change [13] | log2 fold change [14] | log2 fold change [15] | log2 fold change [16] | log2 fold change [17] | log2 fold change [18] | log2 fold change [19] | log2 fold change [20]
MFGE8 (UniProt Q08431) | inactive: -0.061 | inactive: 0.013 | inactive: 0.016 | inactive: -0.087 | inactive: -0.041 | inactive: -0.029 | inactive: 0.007 | inactive: 0.021 | inactive: 0.034 | inactive: 0.038 | inactive: -0.005 | inactive: -0.093 | inactive: 0.021 | inactive: -0.024 | inactive: 0.016 | inactive: -0.015 | inactive: 0.017 | inactive: -0.002 | inactive: -0.082 | inactive: -0.046
MED17 (UniProt Q9NVC6) | inactive: 0.003 | inactive: 0.018 | inactive: -0.029 | inactive: -0.058 | inactive: -0.005 | inactive: -0.037 | inactive: -0.043 | inactive: 0.008 | inactive: -0.005 | inactive: 0.034 | inactive: -0.011 | inactive: 0.036 | inactive: -0.033 | inactive: -0.116 | inactive: -0.014 | inactive: -0.033 | inactive: -0.075 | inactive: 0.019 | inactive: 0.038 | inactive: 0.005
MCTS1 isoform 3 (UniProt Q9ULC4) | inactive: 0.005 | inactive: -0.01 | inactive: 0.071 | inactive: 0.097 | inactive: -0.008 | inactive: -0.002 | inactive: 0.024 | inactive: -0.007 | inactive: -0.007 | inactive: -0.039 | inactive: -0.001 | inactive: 0.019 | inactive: 0.016 | inactive: 0.009 | inactive: -0.009 | inactive: 0.077 | inactive: 0.037 | inactive: -0.004 | inactive: -0.046 | inactive: -0.014
MAZ isoform 2 (UniProt P56270) | inactive: -0.068 | inactive: 0.01 | inactive: 0.015 | inactive: -0.031 | inactive: -0.121 | inactive: 0.15 | inactive: -0.082 | inactive: 0.09 | inactive: -0.022 | inactive: -0.008 | inactive: 0.028 | inactive: 0.016 | inactive: 0.035 | inactive: -0.017 | inactive: -0.003 | inactive: -0.003 | inactive: -0.017 | inactive: -0.033 | inactive: -0.124 | inactive: -0.009
MED18 (UniProt Q9BUE0) | inactive: 0.03 | inactive: 0.033 | inactive: 0.025 | inactive: 0.129 | inactive: -0.005 | inactive: -0.159 | inactive: 0.01 | inactive: 0.025 | inactive: 0.112 | inactive: -0.113 | inactive: 0 | inactive: 0.022 | inactive: 0.004 | inactive: 0.013 | inactive: -0.04 | inactive: 0.038 | inactive: 0.016 | inactive: 0.017 | inactive: -0.044 | inactive: -0.022
MBIP (UniProt Q9NS73) | inactive: -0.037 | inactive: -0.136 | inactive: 0.102 | inactive: -0.101 | inactive: 0.052 | inactive: -0.032 | inactive: 0.194 | inactive: -0.024 | inactive: -0.027 | inactive: 0.113 | inactive: 0.045 | inactive: -0.021 | inactive: -0.029 | inactive: -0.005 | inactive: -0.007 | inactive: -0.103 | inactive: 0.004 | inactive: 0.097 | inactive: 0.038 | inactive: 0.034
MED24 (UniProt O75448) | inactive: 0.002 | inactive: -0.005 | inactive: -0.029 | inactive: -0.025 | inactive: 0.026 | inactive: -0.014 | inactive: 0.03 | inactive: 0.034 | inactive: 0.015 | inactive: 0.051 | inactive: 0.023 | inactive: 0.014 | inactive: -0.027 | inactive: 0.034 | inactive: -0.006 | inactive: -0.062 | inactive: -0.017 | inactive: 0.059 | inactive: 0.001 | inactive: -0.008
ME1 (UniProt P48163) | inactive: 0.007 | inactive: -0.016 | inactive: 0.008 | inactive: -0.057 | inactive: 0.011 | inactive: 0.039 | inactive: 0.028 | inactive: -0.011 | inactive: -0.025 | inactive: 0.001 | inactive: -0.02 | inactive: -0.021 | inactive: 0.046 | inactive: -0.014 | inactive: 0.02 | inactive: -0.051 | inactive: 0 | inactive: 0.006 | inactive: -0.007 | inactive: -0.013
MED14 (UniProt O60244) | inactive: -0.032 | inactive: -0.006 | inactive: -0.016 | inactive: -0.058 | inactive: -0.033 | inactive: -0.016 | inactive: 0.046 | inactive: -0.028 | inactive: -0.036 | inactive: 0.037 | inactive: 0.027 | inactive: -0.013 | inactive: -0.012 | inactive: -0.015 | inactive: 0.011 | inactive: -0.021 | inactive: -0.013 | inactive: 0.011 | inactive: 0.015 | inactive: 0.047
MED16 (UniProt Q9Y2X0) | inactive: -0.014 | inactive: -0.154 | inactive: 0.03 | inactive: 0.167 | inactive: -0.027 | active: -0.261 | inactive: 0.012 | inactive: 0.021 | inactive: 0.051 | inactive: -0.065 | inactive: -0.019 | inactive: 0.01 | inactive: -0.026 | inactive: 0.023 | inactive: -0.016 | inactive: -0.01 | inactive: 0.008 | inactive: -0.013 | inactive: 0.023 | inactive: -0.047
METTL21A (UniProt Q8WXB1) | inactive: 0.004 | inactive: 0.06 | inactive: -0.043 | inactive: -0.083 | inactive: 0.131 | inactive: 0.038 |  | inactive: -0.081 | inactive: -0.04 | inactive: 0.016 | inactive: 0.017 | inactive: 0.055 | inactive: 0.023 | inactive: 0.026 | inactive: -0.064 | inactive: -0.069 | inactive: -0.005 | inactive: -0.001 | inactive: -0.007 | inactive: 0.003
MED31 (UniProt Q9Y3C7) | inactive: 0.062 | inactive: -0.07 | inactive: 0.015 | inactive: 0.064 | inactive: -0.062 | inactive: 0.04 |  | inactive: -0.061 | inactive: -0.006 | inactive: 0.041 | inactive: -0.001 | inactive: 0.018 | inactive: -0.034 | inactive: 0.059 | inactive: 0.039 | inactive: -0.035 | inactive: -0.023 | inactive: -0.027 | inactive: -0.021 | inactive: -0.002
MCOLN1 (UniProt Q9GZU1) | inactive: -0.019 | inactive: -0.053 | inactive: -0.005 | inactive: -0.204 | inactive: 0.04 | inactive: 0.075 |  | inactive: 0.062 | inactive: 0.127 | inactive: 0.06 | inactive: -0.143 | inactive: -0.092 | inactive: -0.088 | inactive: -0.297 | inactive: -0.051 | inactive: -0.104 | inactive: 0.037 | inactive: 0.018 | inactive: 0.009 | inactive: -0.012
MED1 (UniProt Q15648) | inactive: 0.024 | inactive: -0.028 | inactive: -0.023 | inactive: 0.018 | inactive: 0 | inactive: 0.007 | inactive: -0.008 | inactive: -0.01 | inactive: -0.046 | inactive: 0.045 | inactive: 0.041 | inactive: -0.035 | inactive: -0.016 | inactive: 0.009 | inactive: -0.026 | inactive: 0 | inactive: -0.022 | inactive: 0.007 | inactive: -0.011 | inactive: 0.003
METTL9 (UniProt Q9H1A3) | inactive: -0.179 | inactive: -0.045 | inactive: -0.024 | inactive: -0.171 | inactive: 0.119 | inactive: -0.036 |  | inactive: -0.102 | inactive: -0.135 | inactive: 0.237 | inactive: 0.054 | inactive: -0.004 | inactive: -0.231 | inactive: -0.033 | inactive: 0.025 | inactive: -0.041 | inactive: 0.083 | inactive: -0.077 | inactive: 0.049 | inactive: -0.089
MED13 (UniProt Q9UHV7) | inactive: -0.053 | inactive: -0.069 | inactive: -0.04 | inactive: 0.02 | inactive: -0.005 | inactive: -0.011 | inactive: 0.013 | inactive: -0.002 | inactive: -0.03 | inactive: -0.023 | inactive: 0.053 | inactive: -0.037 | inactive: -0.027 | inactive: 0.057 | inactive: 0.019 | inactive: -0.027 | inactive: 0.03 | inactive: 0.014 | inactive: 0.051 | inactive: -0.035

Single values from above.
log2 fold change [11], METTL21A (UniProt Q8WXB1) reads inactive: 0.017
log2 fold change [8], MCTS1 isoform 3 (UniProt Q9ULC4) reads inactive: -0.007
